From the supplement of paper PMC3334620
In all, about 33,000 sequences were measured (“E-score (-0.5 to 0.5)”: median about -0.0059, highest 2% from about 0.26 on). This is one part of the list.

molecular target: T1, Cin5 (UniProt P40917); experiment: PBM E-score (8-mer binding enrichment) (E-score (-0.5 to 0.5)); higher = stronger / more preferred TF binding; settings: protein concentration: 100 nM; construct: GST-full length
T1 sequence: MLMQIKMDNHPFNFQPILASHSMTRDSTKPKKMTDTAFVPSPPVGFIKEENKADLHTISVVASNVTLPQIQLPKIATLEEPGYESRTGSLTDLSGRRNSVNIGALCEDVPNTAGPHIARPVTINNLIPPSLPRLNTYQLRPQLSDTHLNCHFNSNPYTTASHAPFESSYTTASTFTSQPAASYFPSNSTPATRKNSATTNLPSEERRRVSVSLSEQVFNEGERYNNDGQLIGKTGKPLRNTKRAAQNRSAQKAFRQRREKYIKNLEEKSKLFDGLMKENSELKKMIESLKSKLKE
Outline: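 Yeast transcription factors carrying a GST tag, as full-length proteins or DNA-binding domains, were produced by PURExpress in vitro transcription/translation. About 100-200 nM protein was applied to universal all-10-mer Agilent arrays, double-stranded by primer extension on fresh or once-stripped slides. Bound protein was detected with fluorescent anti-GST, and scans were normalised with masliner. The Universal PBM Analysis Suite gave each ungapped eight-base word, pooled with its reverse complement, an E-score, a modified Wilcoxon-Mann-Whitney statistic.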

Sequence	PBM E-score
GGAGTGCC	-0.0729
AAATATAC	0.178
CGTATGGA	0.0632
CGACCAAA	0.133
GTTCTCCA	-0.0622
AACTAGTT	0.0267
CCATATAG	0.0359
TAGGTGGA	-0.0718
GGATCATA	0.0391
ATATACCA	0.156
ATTAATGG	0.156
GCTGAGTA	0.105
GGCTAACA	-0.0786
ACTCGTAC	-0.1
ATACCGAC	-0.105
ATTAACTA	0.272
CCAACTGG	-0.0609
CCCTTAAG	-0.0301
AGTCTATC	0.0215
CTCGTGGC	-0.111
CCCCGATA	-0.0326
GGTGAACC	-0.108
CCTAAGTA	-0.0105
AACGGCCT	-0.136
AGTTAGAA	0.144

Sequence	PBM E-score
CCGGTGTA	-0.14
CTAAAAGA	-0.153
AATAACGC	-0.0661
GCTTATCA	0.285
TATATTGA	0.287
ACAACATC	0.0575
ATCCGATC	0.215
CTATGTAA	0.167
ATCGAATG	0.207
CGATCCAA	-0.108
AGCACTAT	0.103
GAGGAGTA	-0.153
GCAACGTA	0.0948
CACACTTA	0.109
AGGCCTGA	-0.00554
AGTGGCTG	0.0976
CACGAGGC	-0.0926
CGGCAAAA	-0.0807
GCAAAAGC	-0.0287
CGGTCGTA	-0.114
ACGAGGCA	-0.149
CAAGGTAG	-0.0812
GGGGTCCA	-0.192
CAGGAGGC	-0.0869
GCCATCGA	0.0417

Sequence	PBM E-score
AACTAAAC	0.153
CGCCGGAG	-0.0759
ATCTAAAT	0.149
CTTCGGTC	-0.0249
CTTTCGCA	-0.0314
ATCGTGAC	-0.0299
ATTCTCGA	0.156
GCTTAGTA	0.227
CAATTACC	0.0856
CCATAGTA	0.178
AGTGAACG	0.0421
CTGCTACC	-0.14
ACTCCTTG	0.0765
ACGCTACC	-0.298
AAATACGA	0.12
AGAGGCCC	-0.191
ATTTTATC	0.139
AGCGATTC	0.0462
GAGGTTAA	-0.0963
GCCAACCC	-0.182
GCCTAAAA	-0.117
CCTGCGCA	-0.191
GTACCAAC	-0.0192
ATCGAAAC	0.0278
CAGGCCCA	-0.269

Sequence	PBM E-score
ACGCTGAC	0.1
ATCGGGTA	-0.0478
TACATCGA	0.126
CTTACGCC	0.0932
CCAGTTCG	0.0645
AGGAATCC	-0.169
GCTGTTAA	-0.00899
CAGTGACG	-0.0298
ACGCGTTG	0.0265
CCGTCCTA	-0.167
ACAGCTAT	-0.0274
CATCGACC	-0.0202
GAATGATA	0.291
AAAACTCA	0.152
ACGGCACT	-0.0619
CGTGTGAG	-0.065
GCATTTTA	0.158
TATGAAGA	0.153
AAGCAATT	0.142
AGATGTGA	0.229
CAAGCAGG	-0.308
ACGGCCAA	0.0141
AGCAACTC	-0.0584
CGTCTCGC	-0.0731
AATCTGAA	0.103

Reformatted: entries from further up.

| Sequence | PBM E-score |
| --- | --- |
| ATCGTGAC | -0.0299 |
| ATTCTCGA | 0.156 |
| GCTTAGTA | 0.227 |
| CAATTACC | 0.0856 |
| CCATAGTA | 0.178 |
| AGTGAACG | 0.0421 |
| CTGCTACC | -0.14 |
| ACTCCTTG | 0.0765 |
| ACGCTACC | -0.298 |
| AAATACGA | 0.12 |
| AGAGGCCC | -0.191 |
| ATTTTATC | 0.139 |
| AGCGATTC | 0.0462 |
| GAGGTTAA | -0.0963 |
| GCCAACCC | -0.182 |
| GCCTAAAA | -0.117 |
| GTACCAAC | -0.0192 |
| ATCGAAAC | 0.0278 |
| CAGGCCCA | -0.269 |
| ACGCTGAC | 0.1 |
| ATCGGGTA | -0.0478 |
| TACATCGA | 0.126 |
| CTTACGCC | 0.0932 |
| CCAGTTCG | 0.0645 |
| AGGAATCC | -0.169 |
| GCTGTTAA | -0.00899 |
| CAGTGACG | -0.0298 |
| ACGCGTTG | 0.0265 |
| ACAGCTAT | -0.0274 |
| CATCGACC | -0.0202 |
| GAATGATA | 0.291 |
| AAAACTCA | 0.152 |
| ACGGCACT | -0.0619 |
| CGTGTGAG | -0.065 |
| GCATTTTA | 0.158 |
| TATGAAGA | 0.153 |
| AAGCAATT | 0.142 |
| AGATGTGA | 0.229 |
| CAAGCAGG | -0.308 |
| ACGGCCAA | 0.0141 |
| CGTCTCGC | -0.0731 |
| AATCTGAA | 0.103 |

Further results

Sequence	PBM E-score
GCATCAGC	0.0115
TAGCATCA	0.236
TCCCAAAA	0.0139
AATCTAGC	-0.0585
CTCCGTTC	-0.048
CACAGACC	0.115
CACATAGA	-0.0472
GGCGTGGA	-0.0633
ACAGATCA	0.202
CACTCTCA	-0.0106
GAAATTAA	0.273
CCTTACGA	-0.114
ATCTCTAA	0.118
TCATAACA	0.195
ATTTATCC	0.2
AGAACCCG	0.0494
TAAAATTA	0.178
AATAACGA	0.14
CGATACCC	-0.03
AGTGTTCG	0.0791
AAGGTCCT	-0.199
AGACAGGC	-0.133
ATACACGA	0.0841
CATACATA	0.213
AATCGAGT	0.104

Sequence	PBM E-score
CGACCACC	-0.0945
ATAATAGA	0.221
GATGTTTA	0.141
CCACCACC	-0.16
AATTGAAT	0.0567
CGTGCACG	-0.00234
CTACCACC	-0.17
GTGACCCA	-0.126
ATCCGCGG	0.271
CGGTAAAG	0.0679
ACGATCTA	-0.185
CTGGACCC	-0.295
GATCGCAC	-0.0389
ACTCAAGC	-0.0189
ACTGGTCG	-0.18
GACAGCAA	0.0467
ATGTTAAA	0.256
CATTGCCC	-0.117
ACGGATGG	-0.018
GCCTCATA	0.00338
ACGAGGGC	-0.0942
AGTAATCC	0.243
AGGGCGAG	-0.13
GAAGAGTC	-0.137
CCCTGATA	-0.0991

Sequence	PBM E-score
CTGATTCA	0.0937
CAGTTGGA	0.0453
GACTATCA	-0.0598
ATCAAAAC	0.133
CGTCGATA	-0.00286
AAAGGCTC	-0.285
ACCTCTTA	0.231
TCTCACAA	0.177
AATGAGCT	0.0653
ATCGCAAC	0.0824
AATATGCA	0.0588
ATCAGACC	0.00535
GGAAGTCC	-0.129
GATGTAGC	-0.138
ACCGTGAG	-0.226
CTAGATCA	-0.0152
TTAAGGAA	0.0901
ACACGAAG	0.208
AGGAAAGG	-0.353
CGTTCAAC	0.0923
CTTGCTGC	-0.16
GATGCAAC	-0.0342
